No constants are given. Whether binding was seen depends on the method and setting. In cells and extracts the contact can be indirect. Some entries that bind do so weakly or less than the wild type.

By UniProt entry, the sequences of proteins in these tests, tags left out. Where a name states a change or a piece, a line headed by the entry shows the natural chain unless it says otherwise. Chains listed by the source or under a name are the forms on record and can include a tag or linker. Residues count along the entry.
UniProt Q2MHE5: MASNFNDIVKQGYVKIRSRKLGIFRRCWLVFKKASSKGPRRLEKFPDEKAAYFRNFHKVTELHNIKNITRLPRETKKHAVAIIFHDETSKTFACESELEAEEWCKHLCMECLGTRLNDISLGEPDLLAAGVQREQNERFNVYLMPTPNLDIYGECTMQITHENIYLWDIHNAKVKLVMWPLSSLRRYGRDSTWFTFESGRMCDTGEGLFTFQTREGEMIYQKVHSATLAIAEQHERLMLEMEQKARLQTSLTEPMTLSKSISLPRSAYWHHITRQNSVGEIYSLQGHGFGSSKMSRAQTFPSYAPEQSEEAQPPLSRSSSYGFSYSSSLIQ
UniProt Q6PKX4: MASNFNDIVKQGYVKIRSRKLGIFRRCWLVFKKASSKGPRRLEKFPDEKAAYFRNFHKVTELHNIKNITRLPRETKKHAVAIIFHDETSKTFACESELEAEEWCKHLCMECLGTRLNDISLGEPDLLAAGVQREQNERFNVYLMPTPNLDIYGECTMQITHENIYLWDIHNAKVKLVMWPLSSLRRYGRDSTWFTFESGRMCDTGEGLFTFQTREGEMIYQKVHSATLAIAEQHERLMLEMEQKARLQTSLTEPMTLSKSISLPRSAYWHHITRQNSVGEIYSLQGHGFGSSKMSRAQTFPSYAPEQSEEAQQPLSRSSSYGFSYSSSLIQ
UniProt Q6VNS1, residues 32-825: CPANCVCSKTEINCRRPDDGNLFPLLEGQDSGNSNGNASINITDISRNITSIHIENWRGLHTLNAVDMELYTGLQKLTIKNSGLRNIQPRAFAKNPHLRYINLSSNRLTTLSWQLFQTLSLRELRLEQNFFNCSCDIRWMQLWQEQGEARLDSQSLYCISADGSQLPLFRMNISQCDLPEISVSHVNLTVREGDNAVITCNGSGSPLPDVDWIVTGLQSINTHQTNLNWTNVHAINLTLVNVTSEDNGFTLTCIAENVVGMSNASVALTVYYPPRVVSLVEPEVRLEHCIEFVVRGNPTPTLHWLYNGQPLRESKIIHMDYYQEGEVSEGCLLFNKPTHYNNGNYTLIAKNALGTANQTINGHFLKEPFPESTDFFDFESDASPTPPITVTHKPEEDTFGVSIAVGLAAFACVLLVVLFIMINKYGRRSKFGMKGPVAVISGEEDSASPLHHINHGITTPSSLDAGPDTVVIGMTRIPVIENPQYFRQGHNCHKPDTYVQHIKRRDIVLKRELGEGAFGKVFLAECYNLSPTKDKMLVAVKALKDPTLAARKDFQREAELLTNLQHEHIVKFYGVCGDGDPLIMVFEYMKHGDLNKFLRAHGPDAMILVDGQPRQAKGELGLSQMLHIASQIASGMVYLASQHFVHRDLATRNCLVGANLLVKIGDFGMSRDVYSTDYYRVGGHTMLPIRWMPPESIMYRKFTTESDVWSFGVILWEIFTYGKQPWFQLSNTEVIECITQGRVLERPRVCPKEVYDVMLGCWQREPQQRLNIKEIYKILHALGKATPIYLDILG
V5-tagged TrkC receptor, wild type (Q16288-3, form named): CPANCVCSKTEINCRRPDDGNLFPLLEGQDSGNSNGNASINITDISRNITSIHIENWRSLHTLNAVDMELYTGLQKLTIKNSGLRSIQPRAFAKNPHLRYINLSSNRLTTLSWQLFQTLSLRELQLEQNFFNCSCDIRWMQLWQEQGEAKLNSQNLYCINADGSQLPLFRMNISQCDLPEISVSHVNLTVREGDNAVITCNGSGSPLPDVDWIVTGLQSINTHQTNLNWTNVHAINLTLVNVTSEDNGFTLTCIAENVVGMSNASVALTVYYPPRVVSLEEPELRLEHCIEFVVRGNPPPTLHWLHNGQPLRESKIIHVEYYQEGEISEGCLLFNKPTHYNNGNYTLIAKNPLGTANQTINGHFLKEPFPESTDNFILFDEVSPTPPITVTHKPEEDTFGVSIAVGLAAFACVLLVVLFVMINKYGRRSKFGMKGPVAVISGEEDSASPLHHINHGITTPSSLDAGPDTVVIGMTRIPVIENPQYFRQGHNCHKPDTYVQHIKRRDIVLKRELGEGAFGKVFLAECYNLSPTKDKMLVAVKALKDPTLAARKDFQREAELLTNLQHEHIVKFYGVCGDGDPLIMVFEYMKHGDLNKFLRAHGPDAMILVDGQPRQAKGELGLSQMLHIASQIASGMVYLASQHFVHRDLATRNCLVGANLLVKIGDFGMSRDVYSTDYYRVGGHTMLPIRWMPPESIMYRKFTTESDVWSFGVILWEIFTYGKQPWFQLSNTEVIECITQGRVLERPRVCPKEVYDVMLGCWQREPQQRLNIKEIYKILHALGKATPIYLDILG

Here are results for two substances from article PMC2901200.

Experiment [1] deals with Dok6, endogenous in E18.5 mouse brain and cortex neurons (mouse (endogenous in E18.5 ICR mouse brain)) (UniProt Q2MHE5). The experiment in a line: co-IP; E18.5 mouse cortex neurons cultured in empty DMEM for 24 h, without NT-3; lysates immunoprecipitated with anti-Dok6, anti-TrkC blot.
The target is the same in experiment [2]. The experiment in a line: co-IP; homogenates of E18.5 ICR mouse brains, precleared with rabbit IgG; immunoprecipitated with anti-Dok6 or IgG, protein A-agarose, 4°C; anti-TrkC blot.
Experiment [3] has the same target. Kind of experiment: co-IP; E18.5 mouse cortex neurons cultured in empty DMEM for 24 h, then treated with 100 ng/ml NT-3 for 10 min; lysates immunoprecipitated with anti-Dok6, anti-TrkC blot.
The target in experiment [4] is Flag-tagged Dok6 (human) (UniProt Q6PKX4). Kind of experiment: co-IP; HEK293 cotransfected with Flag-Dok6 and V5-TrkC, treated with or without 100 ng/ml NT-3 for 10 min; anti-Flag immunoprecipitation, anti-V5 blot.

Regarding “TrkC receptor, endogenous in E18.5 mouse brain and cortex neurons (from UniProt Q6VNS1 32-825)”, the binding result in experiment [1] was “no binding (condition: without NT-3 stimulation)”; in experiment [2], “binds”; in experiment [3] it was “binds”.

For “V5-tagged TrkC receptor, wild type (from UniProt Q16288-3 32-825)”, the binding entry in experiment [4] is recorded as “binds”.
